Screening data

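A 24-hour survival check of S16 rat Schwann cells, judged by the ATP-driven light signal.
Each compound ran as a dilution series from about 0.00016 to 58 µM.
The number is the fitted AC50 potency for cell killing; a lower value means a more potent cytotoxic effect.
Calls follow curve class, fit quality (r2) and response size; inconclusive compounds get activity scores of 1 to 39, and these rows are all inconclusive.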

Values are in µM.
All entries here are filed as inconclusive.
Only part of the assay is shown, chiefly results filed as inconclusive.
Potencies fitted to partial, single-point or poorly fitting curves are rough.
Some entries filed as inconclusive have a full curve.
The first word of each remark tells which way the curve ran; it can be opposite to the aim of the assay.
Activity scores are not listed here.

| compound | Potency (µM) | remark |
|---|---|---|
| `COc1ccccc1N1CCN(CCCCNC(=O)c2ccc(-c3ccc(C(C)=O)cc3)cc2)CC1` | 2.031 | cytotoxic, partial curve, poor fit |
| `NS(=O)(=O)c1cc2c(cc1Cl)N[C@H](Cc1ccccc1)NS2(=O)=O` | 36.13 | cytotoxic, partial curve, poor fit |
| `CC(=O)[C@H]1CC[C@H]2[C@@H]3CC[C@H]4C[C@H](O)CC[C@]4(C)[C@H]3C(=O)C[C@]12C` | 36.13 | cytotoxic, single point |
| `CC(C)(C)c1cc(O)ccc1O` | 3.612 | cytotoxic, partial curve, poor fit |
| `O=C1C(=O)c2ncccc2-c2cccnc21` | 18.11 | cytotoxic, partial curve, poor fit |
| `Nc1ccc(N=Nc2ccccc2)c(N)n1` | 0.0809 | cytotoxic, full curve, poor fit |
| `Oc1c(I)cc(Cl)c2cccnc12` | 28.7 | cytotoxic, partial curve |
| `C[C@@H]1O[C@@H](OC[C@H]2O[C@@H](Oc3c(-c4ccc(O)c(O)c4)oc4cc(O)cc(O)c4c3=O)[C@H](O)[C@@H](O)[C@@H]2O)[C@H](O)[C@H](O)[C@H]1O` | 0.0023 | rising, full curve, poor fit |
| `NC(=O)c1ccc[n+]([C@@H]2O[C@H](COP(=O)([O-])OP(=O)(O)OC[C@H]3O[C@@H](n4cnc5c(N)ncnc54)[C@@H](O)[C@@H]3O)[C@@H](O)[C@@H]2O)c1` | 7.754 | rising, single point |
| `CN1CCN(C2=Nc3ccccc3Sc3ccc(Cl)cc32)CC1` | 9.074 | cytotoxic, full curve |
| `C[C@]12CC[C@H]3c4ccc(O)cc4CC[C@@H]3[C@H]1CC[C@@H]2OC(=O)CCC1CCCC1` | 40.53 | cytotoxic, single point |
| `CN/C(=C\[N+](=O)[O-])NCCSCc1csc(CN(C)C)n1` | 0.0489 | rising, full curve, poor fit |
| `CCCC(C(=O)OCCN(CC)CC)(c1ccccc1)c1ccccc1` | 36.13 | cytotoxic, single point |
| `O=C(O)c1cc(O)c(O)c(O)c1` | 36.13 | cytotoxic, single point |
| `CN1CCCN=C1COC(=O)C(O)(c1ccccc1)C1CCCCC1` (centres undefined) | 14.38 | cytotoxic, partial curve |
| `CO/N=C(/C(=O)N[C@@H]1C(=O)N2C(C(=O)O)=C(CSc3cnns3)CS[C@H]12)c1csc(N)n1` | 40.53 | cytotoxic, partial curve, poor fit |
| `Cn1cc(C(=O)[C@@H]2CCc3[nH]cnc3C2)c2ccccc21` | 0.0032 | cytotoxic, full curve, poor fit |
| `O=C(/C=C/c1cccc(F)c1)NC1CC1` | 40.53 | cytotoxic, single point |
| `CO[C@H]1C[C@@H]2CC[C@@H](C)[C@@](O)(O2)C(=O)C(=O)N2CCCC[C@H]2C(=O)O[C@H]([C@H](C)C[C@@H]2CC[C@@H](O)[C@H](OC)C2)CC(=O)[C@H](C)/C=C(\C)[C@@H](O)[C@@H](OC)C(=O)[C@H](C)C[C@H](C)/C=C/C=C/C=C/1C` | 0.0256 | cytotoxic, full curve, poor fit |
| `CCCN(CCc1cccs1)[C@H]1CCc2c(O)cccc2C1` | 40.53 | cytotoxic, partial curve, poor fit |
| `C[C@@H](Cc1ccccc1)NCCC(c1ccccc1)c1ccccc1` | 15.47 | cytotoxic, single point |
| `C#C[C@]1(O)CC[C@H]2[C@@H]3CCC4=CC(=O)CCC4=C3C=C[C@@]21CC` | 40.53 | cytotoxic, single point |
| `COC(=O)C1=C(C)NC(C)=C(C(=O)OCC(C)C)C1c1ccccc1[N+](=O)[O-]` (centres undefined) | 36.13 | cytotoxic, single point |
| `CCOC(=O)C(CCc1ccccc1)NC1CCc2ccccc2N(CC(=O)O)C1=O` (centres undefined) | 36.13 | cytotoxic, single point |
| `NC1=NC(S)C2N=CN=C2N1` (centres undefined) | 28.7 | cytotoxic, partial curve |
| `CNNCc1ccc(C(=O)NC(C)C)cc1` | 0.0023 | cytotoxic, full curve, poor fit |
| `COC(=O)C1=C(C)NC(C)=C(C(=O)OCCN2CCN(C(c3ccccc3)c3ccccc3)CC2)C1c1cccc([N+](=O)[O-])c1` (centres undefined) | 10.18 | cytotoxic, partial curve, poor fit |
| `CC(C)NCC(O)c1ccc2ccccc2c1` (centres undefined) | 0.0057 | cytotoxic, full curve, poor fit |
| `CN1C2CCC1CC(OC(c1ccccc1)c1ccccc1)C2` (centres undefined) | 36.13 | cytotoxic, single point |
| `CN(C)CCCOC1C(C(O)CO)OC2OC(C)(C)O[C@@H]21` (some centres undefined) | 10.18 | cytotoxic, single point |
| `O=C(Nc1cccc(C(F)(F)F)c1)c1cc(Br)cc(Br)c1O` | 20.31 | cytotoxic, partial curve |
| `c1ccc2c(c1)OCC(C1=NCCN1)O2` (centres undefined) | 25.57 | cytotoxic, partial curve |
| `O=C(N/N=C\c1ccc([N+](=O)[O-])o1)c1ccc(O)cc1` | 8.7 | cytotoxic, partial curve, poor fit |
| `C=C[C@@]1(C)C[C@H](OC(=O)CSC(C)(C)CNC(=O)[C@@H](N)C(C)C)[C@@]2(C)C(C)CC[C@@]3(CCC(=O)[C@@H]32)[C@H](C)[C@H]1O` (some centres undefined) | 0.0023 | cytotoxic, full curve, poor fit |
| `CN1CCCC(n2nc(Cc3ccc(Cl)cc3)c3ccccc3c2=O)CC1` (centres undefined) | 28.7 | cytotoxic, partial curve |
| `CN(C)C/C=C(/c1ccc(Br)cc1)c1cccnc1` | 20.31 | cytotoxic, partial curve |
| `CN1CCC(=C2c3ccccc3CCc3sccc32)CC1` | 40.53 | cytotoxic, single point |
| `CCCCCCCCCCOc1cc2c(=O)c(C(=O)OCC)c[nH]c2cc1OCC` | 72.08 | cytotoxic, single point |
| `CC(C)COCC(CN(Cc1ccccc1)c1ccccc1)N1CCCC1` (centres undefined) | 6.424 | cytotoxic, partial curve |
| `Cl/C(=C\n1cncn1)c1ccc(Cl)cc1Cl` | 36.13 | cytotoxic, partial curve, poor fit |
| `CC(C)(C)C(=O)OCC(=O)C1CCC2C3CCC4=CC(=O)CCC4(C)C3CCC12C` (centres undefined) | 0.0064 | rising, full curve, poor fit |
| `COc1cc2ncnc(Nc3ccc(F)c(Cl)c3)c2cc1OCCCN1CCOCC1` | 36.13 | cytotoxic, single point |
| `COc1cc2c(cc1OC)C(=O)C(CC1CCN(Cc3ccccc3)CC1)C2` (centres undefined) | 40.53 | cytotoxic, single point |
| `Oc1ccc(O)cc1` | 36.13 | cytotoxic, single point |
| `CC(=O)O[C@@]1(C(C)=O)CCC2C3CC(C)C4=CC(=O)CC[C@@]4(C)C3CC[C@]21C` (some centres undefined) | 9.074 | cytotoxic, single point |
| `CC[C@@]1(O)C[C@H](O[C@H]2C[C@@H](N(C)C)[C@@H](O[C@H]3C[C@@H](O)[C@@H](O[C@H]4CCC(=O)[C@@H](C)O4)[C@@H](C)O3)[C@@H](C)O2)c2c(cc3c(c2O)C(=O)c2c(O)cccc2C3=O)[C@H]1C(=O)OC` | 36.13 | cytotoxic, single point |
| `Cc1cc(N)c2cc(NC(=O)Nc3ccc4nc(C)cc(N)c4c3)ccc2n1` | 90.74 | cytotoxic, partial curve, poor fit |
| `CC1(C)OC(=O)NC1=O` | 40.53 | cytotoxic, partial curve, poor fit |
| `CN(C)CCOc1ccc(/C(=C(/CCCl)c2ccccc2)c2ccccc2)cc1` | 36.13 | cytotoxic, single point |

Once more, the final 5:

compound,Potency (µM),remark
CC(=O)O[C@@]1(C(C)=O)CCC2C3CC(C)C4=CC(=O)CC[C@@]4(C)C3CC[C@]21C (some centres undefined),9.074,"cytotoxic, single point"
CC[C@@]1(O)C[C@H](O[C@H]2C[C@@H](N(C)C)[C@@H](O[C@H]3C[C@@H](O)[C@@H](O[C@H]4CCC(=O)[C@@H](C)O4)[C@@H](C)O3)[C@@H](C)O2)c2c(cc3c(c2O)C(=O)c2c(O)cccc2C3=O)[C@H]1C(=O)OC,36.13,"cytotoxic, single point"
Cc1cc(N)c2cc(NC(=O)Nc3ccc4nc(C)cc(N)c4c3)ccc2n1,90.74,"cytotoxic, partial curve, poor fit"
CC1(C)OC(=O)NC1=O,40.53,"cytotoxic, partial curve, poor fit"
CN(C)CCOc1ccc(/C(=C(/CCCl)c2ccccc2)c2ccccc2)cc1,36.13,"cytotoxic, single point"

From PubChem BioAssay record AID624031 (NCATS, 2012).